Experimental data taken from PubChem BioAssay AID493014 (National Center for Advancing Translational Sciences (NCATS), 2011).
The whole screen tested about 340,000 compounds, of which about 170 (0.05%) were called active. This list was built around the results that the source calls inconclusive (neither active nor inactive); the mix of calls is not that of the screen. The call rests on the fitted dose curve; in most records, active means well fitted inhibition curve with a large enough effect in the signal ratio, with a control signal flat (not every such curve was filed as active); inconclusive means small, poorly fitted or top-dose-only effect, or effect the other way, or a change in a side signal; inactive means flat fitted curve, though single readings scatter; the % refers to the signal ratio. Potencies of inconclusive entries are doubtful fits and often do not repeat.

Assay: qHTS Assay to Find Inhibitors of Chronic Active B-Cell Receptor Signaling;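 on activity change, negative = inhibition: plate controls were basal doxycycline-induced cells for no effect and cells given 10 µM MG132 for full effect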
Settings: ABC-DLBCL IkBa-CBG/CBR reporter, luminescence ratio (green luciferase fused to IkBa over red control in TMD8 lymphoma cells), 4 h; activity change, negative = inhibition: at 46.1 µM (top of the series)
Outline: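 TMD8 ABC-DLBCL cells carrying doxycycline-inducible green luciferase fused to IkappaBalpha plus unfused red luciferase were exposed to compounds (up to 46 uM) for 4 hrs at 37C. Activity came from the overlap-corrected green/red luminescence ratio.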
Potency means the concentration at half of the fitted maximal effect.

SMILES | activity change, negative = inhibition | Potency
COC(=O)c1ccccc1NC(=O)CCc1ccccc1 | inconclusive: -9.48% | 
O=C(Cc1ccc(Nc2nc3ccc(Br)cc3[nH]2)cc1)NCCc1cccs1 | inconclusive: -12.6% | 
COc1ccc(-c2cc(=O)c3c(O)c(OC)c(O)cc3o2)cc1 |  | inconclusive: 14.1 µM [falling, partial curve]
CCOc1ccc(NC(=O)c2ccc(NCC(=O)N3CCCCCC3)cc2)cc1 |  | inconclusive: 7.94 µM [falling, partial curve]
C/C(=N\NC(=O)c1ccccc1C)c1cccc([N+](=O)[O-])c1 |  | inconclusive: 2.91 µM [falling, partial curve, poor fit]
O=C(Nc1ccc(Cl)c(Cl)c1)c1cc(S(=O)(=O)N2CCN(c3cccc(Cl)c3)CC2)ccc1F | inconclusive: -3.3% | 
CC(C)c1nnc(NC(=O)CCC(=O)N2CCN(C3c4ccccc4-c4ccccc43)CC2)s1 | inconclusive: 7.99% | 
Cc1c(Cl)cccc1NC(=S)NCCc1ccc(Cl)cc1 | inactive: -10.6% | 
CCN(CC(=O)Nc1ccccc1C(F)(F)F)C(=O)c1oc2c(Cl)cccc2c1C | inactive: 0.131% | 
O=C(COC(=O)c1cccc2ccccc12)Nc1ncc(C(F)(F)F)cc1Cl |  | inconclusive: 4.11 µM [rising, partial curve, poor fit]
CN(C)c1cccc(C(=O)NNC(=S)NC2CC3CCC2C3)c1 (stereo not drawn) |  | inconclusive: 17.8 µM [falling, partial curve]
COc1ccccc1N1C(=O)C(Cl)=C(N2CCCC2)C1=O |  | inconclusive: 35.5 µM [falling, partial curve, poor fit]
C/C(=N\NC(=O)c1n[nH]c2c1CCC2)c1ccco1 |  | inconclusive: 17.8 µM [cytotoxic, partial curve]
COc1cc2c3nnc(-c4ccc(F)cc4)c-3cn(Cc3cccc(F)c3)c2cc1OC | inactive: 2.14% | 
COc1cccc2cc(C(=O)NCCc3c[nH]c4ccccc34)c(=O)oc12 |  | inconclusive: 25.1 µM [falling, partial curve]
Cc1ccc2nc(-c3ccc(NC(=O)CSc4ccccc4)cc3)[nH]c2c1 |  | inconclusive: 10.3 µM [rising, partial curve, poor fit]
CCOC(=O)c1cnc(-c2ccccc2)nc1N |  | inconclusive: 29.1 µM [falling, single point]
Cc1cccc(-c2noc(CCc3ccccc3)n2)c1 | inconclusive: 2.99% | 
CCN(C(=S)Nc1ccccc1F)C1CCCCC1 | inactive: -1.59% | 
CSc1ccc(C(=O)N2CCc3ccc(NC(=O)c4ccccn4)cc3C2)cc1 |  | inconclusive: 35.5 µM [falling, single point]
O=C(CN1CCOCC1)Nc1nc2ccc(Cl)cc2s1 | inconclusive: -13.9% | 
COc1cc2c(cc1OC)CN(c1nc(-c3cccnc3)nc3ccccc13)CC2 | inconclusive: 9.66% | 
O=C(c1ccc2ccccc2c1)C1CCCN(S(=O)(=O)c2cccnc2)C1 (stereo not drawn) |  | inconclusive: 35.5 µM [falling, single point]
Cc1ccc2cccc(OCC(=O)Nc3cccc(S(=O)(=O)N4CCCC4)c3)c2n1 | inconclusive: -29.3% | 
CCn1cc([N+](=O)[O-])c(C(=O)N2N=C(c3ccc(OC)cc3OC)CC2c2ccccc2O)n1 (stereo not drawn) | inconclusive: -22% | 
CCOC(=O)c1sc(NC(=O)CN(CC(C)C)CC(C)C)c(C(=O)OCC)c1C |  | inconclusive: 9.2 µM [falling, partial curve, poor fit]

Two compounds drawn at random from the list so far, as already listed:
SMILES | activity change, negative = inhibition | Potency
O=C(c1ccc2ccccc2c1)C1CCCN(S(=O)(=O)c2cccnc2)C1 (stereo not drawn) |  | inconclusive: 35.5 µM [falling, single point]
Cc1cccc(-c2noc(CCc3ccccc3)n2)c1 | inconclusive: 2.99% | 

(more compounds)

SMILES | activity change, negative = inhibition | Potency
O=C(CSC1=NS(=O)(=O)c2ccccc21)Nc1ccccc1 | inconclusive: -38.9% | 
CCN(CC)CC(O)COCCC12CC3CC(CC(C3)C1)C2 (stereo not drawn) |  | inconclusive: 29.1 µM [falling, single point]
Cc1ccccc1NC(=O)Cn1nnc2sc3c(c2c1=O)CC(C)(C)OC3 | inconclusive: 1.3% | 
CCOC(=O)c1c(NC(=O)CSc2nncs2)sc(C)c1-c1ccccc1 | inconclusive: 3.77% | 
Cc1cccc(CNc2ncnc3ccc(-c4ccccc4Cl)cc23)c1 | inconclusive: 7% | 
COc1ccc(CN2C(=O)c3ccccc3C2C(=O)NCc2cccnc2)c(OC)c1 (stereo not drawn) | inconclusive: -0.607% | 
Cc1cc(C)n(-c2ncnc3c2oc2ccccc23)n1 | inconclusive: 11.2% | 
Nc1cc(Nc2ccc(Br)cc2)nc(N)n1 | inconclusive: -13.5% | 
O=C(CC1CCCCC1)c1c(O)c2ccccc2oc1=O |  | inconclusive: 14.6 µM [falling, partial curve]
CCCCCOC(=O)C1=C(C)NC(=O)NC1c1ccc([N+](=O)[O-])cc1 (stereo not drawn) | inconclusive: -6.9% | 
c1ccc2c(c1)CNc1ccccc1C2 | inconclusive: 0.611% | 
C=CCn1c(SCC(=O)NNC(=S)Nc2ccccc2)nnc1-c1ccccc1 | inactive: -1.06% | 
CCN(CC)S(=O)(=O)c1ccc(NN=C2CCN(C(C)C)CC2)c([N+](=O)[O-])c1 | inconclusive: -18.1% | 
Cc1cccc(OCC(=O)OCC(=O)NCC2CCCO2)c1C (stereo not drawn) | inactive: 1.4% | 
Cc1cc(C)cc(NC(=O)Nc2ccc(NC(=O)c3ccccc3O)cc2)c1 | inconclusive: 11.4% | 
O=C(Nc1cccnc1Cl)c1cc(-c2ccc(O)cc2)on1 |  | inconclusive: 12.6 µM [falling, partial curve, poor fit]
O=C(O)/C=C/C(=O)Nc1ccc(Cl)c(C(=O)O)c1 |  | inconclusive: 22.4 µM [falling, single point]
Cc1ccc2c(c1)C(O)(CC(=O)/C=C/C=C/c1ccccc1)C(=O)N2 (stereo not drawn) | inconclusive: -4.41% | 
CC(=O)Nc1cccc(-c2csc(Nc3cc(C)ccn3)n2)c1 |  | inconclusive: 0.562 µM [falling, full curve, poor fit]
COc1ccccc1CCNC(=O)C(=O)c1cn(CC(=O)N2CCOCC2)c2ccccc12 |  | inconclusive: 17.8 µM [falling, partial curve]
CC(=O)NC1C2CN3CCN(C2)CC1(Cc1ccccc1)C3 (stereo not drawn) | inconclusive: 7.2% | 
CCOC(=O)c1ccc2ncc(-c3ccccc3)nc2c1 | inactive: 12.8% | 
CCCCNC(=O)c1ccccc1NC(=O)c1ccc2c(c1)OCO2 | inconclusive: -7.31% | 
CCOc1cccc(C(=O)Nc2ccc(N(CC)CC)cc2)c1 |  | inconclusive: 17.8 µM [falling, partial curve, poor fit]
Cc1cc2c(cc1[N+](=O)[O-])NC(CNC(C)C)CC2 (stereo not drawn) | inactive: 2.74% | 
O=C(C[C@H]1C[C@H](C(=O)N2CCOCC2)[C@@]2(CCC3CCCC3)c3[nH]c4cc(-c5ccco5)ccc4c3CCN2C1=O)NCCc1ccccn1 | inconclusive: -0.491% | 

SMILES | activity change, negative = inhibition | Potency
COc1ccc(C(=O)Oc2ccc(/C=N/NC(=O)c3ccccc3OC)cc2[N+](=O)[O-])cc1 | inconclusive: 9.27% | 
Cc1cc(NC(=O)CSc2ccc(-c3ccc(Br)cc3)nn2)no1 | inconclusive: 6.86% | 
Clc1ccc(CNC2CCN(Cc3ccccc3)CC2)cc1 | inactive: -8.17% | 
COc1ccc(-c2cc3ccc(OCC(C)=O)cc3oc2=O)cc1 | inactive: 0.189% | 
FC(F)Oc1ccc(N=C2SCC3CCCCN23)cc1 (stereo not drawn) | inconclusive: 19.3% | 
COc1ccc(C(=O)Nc2cc(Cl)cc(Cl)c2)c(OC)n1 | inconclusive: 6.45% | 
CS/C(=C/[N+](=O)[O-])Nc1cccc2c1C(C)CC2(C)C (stereo not drawn) |  | inconclusive: 22.4 µM [falling, single point]
COc1ccc(/C=C/C(=O)NC(=S)Nc2ccc(S(=O)(=O)Nc3ccc(OC)nn3)cc2)cc1 | inconclusive: 4.43% | 
Brc1ccc2nc3c(n2c1)CCCC3 | inconclusive: 7.59% | 
Cn1cnc2c(NCc3ccco3)ncnc21 |  | inconclusive: 11.2 µM [falling, partial curve, poor fit]
Fc1ccc(N2CCN(Cc3c[nH]c4ccccc34)CC2)cc1 | inactive: -0.433% | 
CC(=O)c1cccc(CN2CCC(C(=O)Nc3ccc(-c4cccc(C)c4)cc3)CC2)c1 |  | inconclusive: 28.2 µM [cytotoxic, single point]
CC(=O)Nc1ccc(S(=O)(=O)N[C@@H](C)C(=O)OCC(=O)c2ccc(C)cc2)cc1 | inactive: -0.62% | 
Cc1ccccc1OCC(=O)Nc1ccc(N2CCN(C(=O)c3ccco3)CC2)cc1 |  | inconclusive: 35.5 µM [falling, single point]
CC(=O)N1CCN(c2ccc(NC(=O)c3cccc(OCc4ccccc4)c3)cc2)CC1 | inconclusive: -0.318% | 
O=C(O)c1ccc2c(c1)C(=O)N(NC(=O)c1ccccc1)C2=O |  | inconclusive: 31.6 µM [rising, single point]
Cc1c(NC(=O)C(C)Sc2nccn2C)c(=O)n(-c2ccccc2)n1C (stereo not drawn) | inconclusive: 14.6% | 
COC(=O)CCCC1=CC2=CC(=O)C(C)(OC(=O)c3cccs3)C(=O)C2=CN1c1ccc(OC)cc1 (stereo not drawn) | inconclusive: 3.31% | 
O=c1cc(-c2ccc(F)cc2F)[nH]c2ccccc12 | inconclusive: 4.13% | 
CCc1ccc(CNC(=O)C2CCN(S(=O)(=O)N3CCCC3)CC2)cc1 | inactive: -4.83% | 
Cc1ccc(C(NC(=O)/C=C\c2ccc3c(c2)OCO3)C(=O)Nc2ccc3c(c2)OCO3)cc1 (stereo not drawn) | inconclusive: -0.689% | 
CCc1c(C)sc(NC(=O)c2cc(C)no2)c1C#N |  | inconclusive: 3.26 µM [rising, single point]
CCCC1CCC(C(=O)Nn2cnc3ccccc3c2=O)CC1 (stereo not drawn) | inactive: 2.01% | 
Cc1cccc(NC(=O)CSc2nc3[nH]ncc3c(=O)n2-c2ccccc2)c1 | inconclusive: -0.62% | 
COc1ccc(C(=O)OCC(=O)NCc2ccco2)cc1OC | inconclusive: 6.47% | 
CCN(CCCNC(=O)c1cn(CC)c2ccc(S(=O)(=O)N(C)C)cc2c1=O)c1cccc(C)c1 | inconclusive: -0.0529% | 

Taken from the entries so far (2 entries):
SMILES | activity change, negative = inhibition | Potency
Brc1ccc2nc3c(n2c1)CCCC3 | inconclusive: 7.59% | 
Cn1cnc2c(NCc3ccco3)ncnc21 |  | inconclusive: 11.2 µM [falling, partial curve, poor fit]
